Assay [1] addresses HA PSMA3 FPC (UniProt P25788). The assay can be described thus: split reporter.
For assay [2], the target named is chimeric PSMA3 Ct-Δ26 (FPC fusion) (UniProt P25788). The assay can be described thus: split reporter.
The target of assay [3] is HA PSMA3 FPC (UniProt P25788). The assay can be described thus: co-sedimentation + split reporter.
The next assay concerns the target GST-PSMA3-Ct187-255 (UniProt P25788). The assay can be described thus: pull-down.
The next assay has as its target GST-PSMA5-Ct188-241 (UniProt P28066). The assay can be described thus: pull-down.
The next assay deals with HA PSMA5 FPC (PSMA5 wt) (UniProt P28066). The assay can be described thus: co-IP.

Sequences of proteins named here, by UniProt entry; tags and fusion partners are left off. A change or cut given only in a name is not applied to a line headed by its entry. Residues count along the entry.
UniProt P25788, 187-255: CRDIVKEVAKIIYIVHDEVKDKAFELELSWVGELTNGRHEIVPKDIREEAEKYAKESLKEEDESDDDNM
UniProt P25788, whole entry: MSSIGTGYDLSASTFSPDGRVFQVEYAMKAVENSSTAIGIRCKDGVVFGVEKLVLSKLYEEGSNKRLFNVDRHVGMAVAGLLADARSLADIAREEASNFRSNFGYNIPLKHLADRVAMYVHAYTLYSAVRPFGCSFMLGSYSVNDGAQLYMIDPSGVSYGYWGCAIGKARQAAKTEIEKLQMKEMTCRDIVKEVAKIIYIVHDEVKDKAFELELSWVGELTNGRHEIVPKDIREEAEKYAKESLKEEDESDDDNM
UniProt P25788, 1-229, stated change not applied: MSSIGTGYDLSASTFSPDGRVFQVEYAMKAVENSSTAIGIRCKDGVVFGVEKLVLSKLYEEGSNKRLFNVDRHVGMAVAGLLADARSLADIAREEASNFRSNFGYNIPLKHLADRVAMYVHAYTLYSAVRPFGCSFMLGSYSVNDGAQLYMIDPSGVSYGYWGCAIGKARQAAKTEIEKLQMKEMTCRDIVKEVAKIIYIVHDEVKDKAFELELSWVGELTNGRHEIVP
UniProt P28066, 188-241: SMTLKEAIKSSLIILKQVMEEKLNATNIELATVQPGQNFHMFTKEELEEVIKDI
UniProt P28066, whole entry: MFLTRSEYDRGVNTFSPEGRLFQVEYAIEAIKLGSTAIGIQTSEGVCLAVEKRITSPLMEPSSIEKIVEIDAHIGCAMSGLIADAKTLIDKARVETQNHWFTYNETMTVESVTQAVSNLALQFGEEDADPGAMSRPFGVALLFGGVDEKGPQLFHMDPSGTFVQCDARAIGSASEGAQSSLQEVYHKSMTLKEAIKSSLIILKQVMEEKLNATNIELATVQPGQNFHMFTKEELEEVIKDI
UniProt P38936, whole entry: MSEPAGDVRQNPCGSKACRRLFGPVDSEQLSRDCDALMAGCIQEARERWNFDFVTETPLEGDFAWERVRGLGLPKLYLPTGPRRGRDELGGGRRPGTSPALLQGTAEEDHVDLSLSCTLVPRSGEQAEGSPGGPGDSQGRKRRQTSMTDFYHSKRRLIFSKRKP
UniProt P01100, whole entry: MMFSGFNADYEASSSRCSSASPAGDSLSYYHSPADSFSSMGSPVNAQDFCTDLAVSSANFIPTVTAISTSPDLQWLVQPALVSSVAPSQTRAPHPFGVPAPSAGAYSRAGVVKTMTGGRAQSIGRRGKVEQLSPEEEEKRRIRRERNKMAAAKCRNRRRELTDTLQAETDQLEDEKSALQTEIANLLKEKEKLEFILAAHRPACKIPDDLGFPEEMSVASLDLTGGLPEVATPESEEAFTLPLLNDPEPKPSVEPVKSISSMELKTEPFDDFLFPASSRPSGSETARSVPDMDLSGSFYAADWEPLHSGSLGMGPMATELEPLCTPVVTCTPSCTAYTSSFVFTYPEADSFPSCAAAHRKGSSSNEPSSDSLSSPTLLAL

Among the data in article doi:10.1101/210898 are binding values, retold here.

Results are given in words; binding and its absence hold for the method and conditions named. Binding seen in cells or lysates may run through a third protein. Some entries that bind do so weakly or less than the wild type.

On to “6xmyc p21 FPN (from UniProt P38936 1-164)”, for which the binding result (with HA PSMA3 FPC [1]; in assay [2]; in the assay with HA PSMA3 FPC [3]) was “binds” in each case.
Turning to “p53 (endogenous) (from UniProt P04637 1-393)”, the binding result is listed as “binds” with GST-PSMA3-Ct187-255 and “no binding” in the assay with GST-PSMA5-Ct188-241.
In the case of “c-Fos (endogenous) (from UniProt P01100 1-380)”, the binding entry with GST-PSMA3-Ct187-255 is recorded as “binds”; in the assay with GST-PSMA5-Ct188-241 it was “no binding”.
Take 6xmyc p21 (from UniProt P38936 1-164): the binding result with HA PSMA5 FPC (PSMA5 wt) is “no binding”; with GST-PSMA3-Ct187-255, “binds”; in the assay with GST-PSMA5-Ct188-241, “no binding”.
